Measurements published in publication PMC9178012.
No constants are given. Whether binding was seen depends on the method and setting. Binding seen in cells or lysates may run through a third protein. A yes stands for co-enrichment or nearness to the bait. Other partners may have been found.

The chains behind the UniProt entries cited, without tags or fusion partners.
UniProt P78527: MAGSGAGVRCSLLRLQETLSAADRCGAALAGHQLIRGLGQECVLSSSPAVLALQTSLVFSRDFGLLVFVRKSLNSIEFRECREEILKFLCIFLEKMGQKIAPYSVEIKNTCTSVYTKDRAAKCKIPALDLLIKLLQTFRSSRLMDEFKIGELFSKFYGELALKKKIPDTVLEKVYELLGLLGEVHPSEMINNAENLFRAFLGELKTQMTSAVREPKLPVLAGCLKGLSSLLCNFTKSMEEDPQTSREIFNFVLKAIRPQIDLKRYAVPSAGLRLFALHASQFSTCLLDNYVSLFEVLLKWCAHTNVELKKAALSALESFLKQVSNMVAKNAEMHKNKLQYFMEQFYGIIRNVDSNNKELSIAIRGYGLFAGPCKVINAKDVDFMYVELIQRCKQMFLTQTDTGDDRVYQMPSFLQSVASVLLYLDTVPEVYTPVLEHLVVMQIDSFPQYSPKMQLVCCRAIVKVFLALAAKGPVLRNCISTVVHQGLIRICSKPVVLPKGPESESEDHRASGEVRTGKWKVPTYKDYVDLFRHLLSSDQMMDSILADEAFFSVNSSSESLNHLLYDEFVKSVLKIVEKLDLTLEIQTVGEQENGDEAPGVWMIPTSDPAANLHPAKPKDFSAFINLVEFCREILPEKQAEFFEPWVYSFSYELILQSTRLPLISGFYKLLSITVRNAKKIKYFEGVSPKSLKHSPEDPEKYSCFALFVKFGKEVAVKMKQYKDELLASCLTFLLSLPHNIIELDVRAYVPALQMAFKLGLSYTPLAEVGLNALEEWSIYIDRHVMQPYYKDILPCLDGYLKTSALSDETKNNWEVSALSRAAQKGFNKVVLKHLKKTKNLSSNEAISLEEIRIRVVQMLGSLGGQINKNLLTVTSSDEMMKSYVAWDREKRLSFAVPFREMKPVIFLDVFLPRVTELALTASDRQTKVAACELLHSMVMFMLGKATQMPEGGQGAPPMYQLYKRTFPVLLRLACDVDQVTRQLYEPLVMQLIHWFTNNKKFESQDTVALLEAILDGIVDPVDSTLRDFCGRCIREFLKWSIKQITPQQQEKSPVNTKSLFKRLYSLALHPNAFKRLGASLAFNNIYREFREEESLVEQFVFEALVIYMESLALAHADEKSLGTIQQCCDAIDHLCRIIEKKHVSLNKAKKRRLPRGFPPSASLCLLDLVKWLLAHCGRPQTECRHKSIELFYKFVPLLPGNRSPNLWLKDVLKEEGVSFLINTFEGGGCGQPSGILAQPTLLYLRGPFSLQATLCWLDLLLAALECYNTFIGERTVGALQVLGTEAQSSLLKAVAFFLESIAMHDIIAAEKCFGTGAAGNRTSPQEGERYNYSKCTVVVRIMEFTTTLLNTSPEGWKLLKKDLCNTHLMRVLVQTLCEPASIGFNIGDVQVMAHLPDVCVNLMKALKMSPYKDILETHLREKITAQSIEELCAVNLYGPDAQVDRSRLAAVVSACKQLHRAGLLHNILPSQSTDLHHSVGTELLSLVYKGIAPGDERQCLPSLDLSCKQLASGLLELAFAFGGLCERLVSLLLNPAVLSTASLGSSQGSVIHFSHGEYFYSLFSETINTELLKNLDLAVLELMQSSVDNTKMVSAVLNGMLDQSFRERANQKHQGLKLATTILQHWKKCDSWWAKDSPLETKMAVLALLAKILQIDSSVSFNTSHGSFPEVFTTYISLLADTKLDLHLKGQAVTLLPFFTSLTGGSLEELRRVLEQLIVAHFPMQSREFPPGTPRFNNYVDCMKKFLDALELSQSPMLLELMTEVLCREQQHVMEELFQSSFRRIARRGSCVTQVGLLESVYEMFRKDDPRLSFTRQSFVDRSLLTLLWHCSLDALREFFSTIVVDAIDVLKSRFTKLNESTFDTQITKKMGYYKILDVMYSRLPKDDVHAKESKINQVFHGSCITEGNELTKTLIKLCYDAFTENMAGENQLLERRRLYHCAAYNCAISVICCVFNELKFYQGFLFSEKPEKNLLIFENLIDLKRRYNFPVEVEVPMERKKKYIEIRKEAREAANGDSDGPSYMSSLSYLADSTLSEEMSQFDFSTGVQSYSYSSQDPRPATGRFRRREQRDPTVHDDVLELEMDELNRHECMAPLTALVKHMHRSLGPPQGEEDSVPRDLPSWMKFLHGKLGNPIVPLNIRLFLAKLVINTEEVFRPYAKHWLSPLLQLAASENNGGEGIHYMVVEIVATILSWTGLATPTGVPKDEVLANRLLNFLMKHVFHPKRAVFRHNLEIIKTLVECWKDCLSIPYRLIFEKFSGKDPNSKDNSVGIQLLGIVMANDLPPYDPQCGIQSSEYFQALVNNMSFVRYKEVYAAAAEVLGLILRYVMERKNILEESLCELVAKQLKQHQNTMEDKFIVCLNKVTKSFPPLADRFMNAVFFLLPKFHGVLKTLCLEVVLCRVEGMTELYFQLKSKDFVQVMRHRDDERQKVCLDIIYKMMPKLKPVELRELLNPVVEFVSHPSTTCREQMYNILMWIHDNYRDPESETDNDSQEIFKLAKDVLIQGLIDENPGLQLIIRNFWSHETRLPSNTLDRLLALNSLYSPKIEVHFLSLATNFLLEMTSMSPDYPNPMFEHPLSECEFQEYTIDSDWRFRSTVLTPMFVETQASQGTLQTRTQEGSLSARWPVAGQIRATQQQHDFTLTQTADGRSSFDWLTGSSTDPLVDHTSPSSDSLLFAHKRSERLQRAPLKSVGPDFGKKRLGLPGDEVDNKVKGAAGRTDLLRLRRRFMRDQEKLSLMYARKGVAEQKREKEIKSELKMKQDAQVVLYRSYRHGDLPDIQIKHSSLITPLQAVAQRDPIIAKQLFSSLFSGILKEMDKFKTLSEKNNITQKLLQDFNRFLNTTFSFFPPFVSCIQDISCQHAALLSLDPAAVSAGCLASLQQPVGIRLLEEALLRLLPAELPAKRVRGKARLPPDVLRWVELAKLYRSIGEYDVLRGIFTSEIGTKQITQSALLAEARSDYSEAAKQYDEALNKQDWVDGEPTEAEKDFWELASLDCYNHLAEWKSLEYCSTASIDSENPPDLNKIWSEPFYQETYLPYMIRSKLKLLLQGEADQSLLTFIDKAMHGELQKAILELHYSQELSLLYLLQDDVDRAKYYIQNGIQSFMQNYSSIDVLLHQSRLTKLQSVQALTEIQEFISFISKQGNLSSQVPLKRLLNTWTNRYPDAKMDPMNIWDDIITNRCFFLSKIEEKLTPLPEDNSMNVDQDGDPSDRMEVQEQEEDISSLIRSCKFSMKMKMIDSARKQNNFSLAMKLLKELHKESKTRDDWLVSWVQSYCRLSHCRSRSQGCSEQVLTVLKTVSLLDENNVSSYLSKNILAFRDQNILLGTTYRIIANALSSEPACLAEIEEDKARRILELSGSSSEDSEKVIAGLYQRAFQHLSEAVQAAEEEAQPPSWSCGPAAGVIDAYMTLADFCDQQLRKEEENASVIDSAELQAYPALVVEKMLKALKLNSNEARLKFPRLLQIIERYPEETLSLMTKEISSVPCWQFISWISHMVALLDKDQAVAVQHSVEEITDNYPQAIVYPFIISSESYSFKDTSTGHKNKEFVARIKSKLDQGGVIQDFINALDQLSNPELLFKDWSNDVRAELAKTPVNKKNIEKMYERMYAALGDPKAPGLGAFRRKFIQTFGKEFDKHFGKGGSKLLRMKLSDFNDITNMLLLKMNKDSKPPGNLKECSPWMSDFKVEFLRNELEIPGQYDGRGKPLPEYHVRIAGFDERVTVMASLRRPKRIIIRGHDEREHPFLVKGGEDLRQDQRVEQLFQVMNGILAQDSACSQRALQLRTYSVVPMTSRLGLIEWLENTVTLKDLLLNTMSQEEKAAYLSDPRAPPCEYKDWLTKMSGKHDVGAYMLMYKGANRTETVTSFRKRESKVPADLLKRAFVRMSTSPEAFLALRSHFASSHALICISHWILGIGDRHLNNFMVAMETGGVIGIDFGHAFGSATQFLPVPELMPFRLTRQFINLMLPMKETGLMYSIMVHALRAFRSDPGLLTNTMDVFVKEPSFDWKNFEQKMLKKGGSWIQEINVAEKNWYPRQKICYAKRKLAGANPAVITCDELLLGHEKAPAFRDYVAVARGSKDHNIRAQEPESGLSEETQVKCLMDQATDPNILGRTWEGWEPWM

Target: RECQL4 (human (endogenous in U2OS and HCT116)) (UniProt O94761)
Assay: affinity purification with mass spectrometry; RECQL4 immunoprecipitated from whole cell lysates of U2OS cells 10 min after 10 Gy IR; SDS-PAGE, mass spectrometry

binding: binds
Substance: DNA-PKcs (from UniProt P78527 1-4128)
